Reference: the supplement of paper PMC4604168 (melanoma cell lines)
Some of the results follow. Repeats are few or missing, and single values can be far off.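 Cells were imaged in 1,536-well plates, and nuclei stained with an antibody against cleaved PARP were counted against all DNA-stained nuclei to give the apoptosis fraction. Screening doses were chosen to leave most cells alive, and resting and induced cleaved-PARP levels differ strongly between cell lines.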

Tests used:
Assay in all cases: cleaved PARP positive nuclei fraction relative to DMSO control; melanoma cells; higher = more apoptosis
Conditions in all cases: library dose: low library concentration; 72 h
501Mel = tested on: 501Mel
A101D = tested on: A101D
A2058 = tested on: A2058
A375 = tested on: A375
C32 = tested on: C32
CBRC013 = tested on: CBRC013 (line from a melanoma biopsy)
CBRC014 = tested on: CBRC014 (line from a melanoma biopsy)
CBRC016 = tested on: CBRC016 (line from a melanoma biopsy)
CBRC017 = tested on: CBRC017 (line from a melanoma biopsy)

Structure (SMILES) | cleaved PARP positive nuclei fraction (501Mel) [%] | cleaved PARP positive nuclei fraction (A101D) [%] | cleaved PARP positive nuclei fraction (A2058) [%] | cleaved PARP positive nuclei fraction (A375) [%] | cleaved PARP positive nuclei fraction (C32) [%] | cleaved PARP positive nuclei fraction (CBRC013) [%] | cleaved PARP positive nuclei fraction (CBRC014) [%] | cleaved PARP positive nuclei fraction (CBRC016) [%] | cleaved PARP positive nuclei fraction (CBRC017) [%]
CO[C@@H]1[C@H](N(C)C(=O)c2ccccc2)C[C@H]2O[C@]1(C)n1c3ccccc3c3c4c(c5c6ccccc6n2c5c31)C(=O)NC4 [Midostaurin] + O=C(Nc1ccccc1)c1cc([N+](=O)[O-])ccc1Cl [GW9662] (first compound 0.08 µM, partner dose 2 µM) | 43.6 | 187 | 135 | 103 | 139 | 288 | 102 | 130 | 97.4
Cn1nnc2c(C(N)=O)ncn2c1=O [temozolomide] + COc1ccc2c(c1)CCC1C2CCC2(C)C(NCCCCCCN3C(=O)C=CC3=O)CCC12 [U73122] (first compound 2 µM, partner dose 0.4 µM) | 167 | 106 | 213 | 286 | 192 | 102 | 115 | 92.9 | 148
NC(=O)Nc1cc(-c2cccc(F)c2)sc1C(=O)N[C@H]1CCCNC1 + Cc1cc([N+](=O)[O-])ccc1NS(=O)(=O)c1cc(Cl)ccc1Cl [FH535] (first compound 0.02 µM, partner dose 1 µM) | 62.7 | 253 | 37.2 | 188 | 199 | 141 | 131 | 2830 | 816
Cn1nnc2c(C(N)=O)ncn2c1=O [temozolomide] + O=c1cc(-c2cccc3c2Sc2ccccc2S3)oc(N2CCOCC2)c1 [KU55933] (first compound 2 µM, partner dose 1 µM) | 57 | 63.6 | 71.7 | 61.9 | 92.5 | 46.9 | 105 | 43.4 | 93
O=C(CCCCCCC(=O)Nc1ccccc1)NO [vorinostat] + O=C(Nc1ccccc1)c1cc([N+](=O)[O-])ccc1Cl [GW9662] (first compound 0.08 µM, partner dose 2 µM) | 80.2 | 113 | 128 | 15.8 | 51.9 | 44.1 | 89.7 | 86.8 | 104
CC1(C)NC(=O)N(c2ccc([N+](=O)[O-])c(C(F)(F)F)c2)C1=O [nilutamide] + O=C1NC(=O)/C(=C/c2ccc(-c3ccc(F)cc3O)o2)S1 [AS252424] (first compound 1 µM, partner dose 1 µM) | 41.7 | 77 | 93.3 | 143 | 96.9 | 200 | 86.3 | 38.6 | 89.7
CO[C@@H]1[C@H](N(C)C(=O)c2ccccc2)C[C@H]2O[C@]1(C)n1c3ccccc3c3c4c(c5c6ccccc6n2c5c31)C(=O)NC4 [Midostaurin] + COc1ccc(-c2ccc3c(N4CCOCC4)nc(N4C[C@@H](C)O[C@@H](C)C4)nc3n2)cc1CO [KU0063794] (first compound 0.08 µM, partner dose 0.02 µM) | 84 | 79 | 97.8 | 195 | 78.6 | 99 | 111 | 81.5 | 98.2
Cc1nc(Nc2ncc(C(=O)Nc3c(C)cccc3Cl)s2)cc(N2CCN(CCO)CC2)n1 [dasatanib] + COc1cc2ncnc(Nc3ccc(Oc4ccccc4)cc3)c2cc1OC [SrcI1] (first compound 0.004 µM, partner dose 2 µM) | 157 | 71.8 | 130 | 152 | 206 | 180 | 145 | 146 | 89.6
C[C@@H]1CCN(C(=O)CC#N)C[C@@H]1N(C)c1ncnc2[nH]ccc12 + COC(=O)c1sccc1S(=O)(=O)Nc1ccc(Nc2ccccc2)cc1OC [GSK0660] (first compound 1 µM, partner dose 1 µM) | 49.1 | 55.4 | 137 | 74.1 | 71.6 | 37.1 | 83.5 | 166 | 76.8
O=C(Nc1cccc(Cl)c1)Nc1ncc(CCNc2ncnc3ccsc23)s1 + O=C(Nc1ccccc1)c1cc([N+](=O)[O-])ccc1Cl [GW9662] (first compound 0.0008 µM, partner dose 2 µM) | 134 | 172 | 99.8 | 127 | 220 | 43.9 | 99.3 | 28.8 | 154
Cn1nnc2c(C(N)=O)ncn2c1=O [temozolomide] + COc1ccc(-c2ccc3c(N4CCOCC4)nc(N4C[C@@H](C)O[C@@H](C)C4)nc3n2)cc1CO [KU0063794] (first compound 2 µM, partner dose 0.02 µM) | 83.2 | 46.1 | 119 | 34.3 | 62.8 | 543 | 101 | 80.6 | 69.6
Cn1nnc2c(C(N)=O)ncn2c1=O [temozolomide] + CCc1ccc(CCOc2ccc(CC3SC(=O)NC3=O)cc2)nc1 [pioglitazone] (first compound 2 µM, partner dose 2 µM) | 173 | 222 | 97.2 | 120 | 46.9 | 437 | 108 | 66.3 | 76.1
Nc1cccc2c1CN(C1CCC(=O)NC1=O)C2=O (stereo unspecified) [lenalidomide] + Cn1cc(/C=C2\C(=O)Nc3cccnc32)c2ccccc21 [GW441756] (first compound 1 µM, partner dose 0.4 µM) | 69.5 | 119 | 68.5 | 302 | 121 | 104 | 98.8 | 133 | 168
Nc1cccc2c1CN(C1CCC(=O)NC1=O)C2=O (stereo unspecified) [lenalidomide] + COc1cc(N2CCC(N3CCN(C)CC3)CC2)ccc1Nc1ncc(Cl)c(Nc2ccccc2S(=O)(=O)C(C)C)n1 [NVP-TAE684] (first compound 1 µM, partner dose 0.08 µM) | 103 | 172 | 141 | 60 | 222 | 190 | 92.1 | 58.4 | 82
Cn1c(Nc2ccc(C(F)(F)F)cc2)nc2cc(Oc3ccnc(-c4ncc(C(F)(F)F)[nH]4)c3)ccc21 + N#Cc1c(O)c2c(-c3ccc(-c4ccccc4O)cc3)csc2[nH]c1=O [A769662] (first compound 0.08 µM, partner dose 2 µM) | 70.3 | 265 | 98.8 | 327 | 85.5 | 310 | 107 | 141 | 93.8
Cn1c(Nc2ccc(C(F)(F)F)cc2)nc2cc(Oc3ccnc(-c4ncc(C(F)(F)F)[nH]4)c3)ccc21 + O=C1NC(=O)/C(=C/c2ccc(-c3ccc(F)cc3O)o2)S1 [AS252424] (first compound 0.08 µM, partner dose 1 µM) | 130 | 610 | 57.2 | 207 | 89.2 | 131 | 202 | 124 | 92
COCC[n+]1c2c(n(Cc3cnccn3)c1C)C(=O)c1ccccc1C2=O + COc1cc2ncnc(Nc3ccc(Oc4ccccc4)cc3)c2cc1OC [SrcI1] (first compound 0.0004 µM, partner dose 2 µM) | 38.9 | 200 | 101 | 549 | 89.4 | 101 | 97.9 | 76.8 | 69.2
C[C@@H]1CCN(C(=O)CC#N)C[C@@H]1N(C)c1ncnc2[nH]ccc12 + CCN(CC)CCCCNc1ncc2cc(-c3cc(OC)cc(OC)c3)c(NC(=O)NC(C)(C)C)nc2n1 [PD173074] (first compound 1 µM, partner dose 0.1 µM) | 85.3 | 177 | 102 | 62.7 | 158 | 102 | 72.2 | 65.2 | 74.3
Cc1nc(Nc2ncc(C(=O)Nc3c(C)cccc3Cl)s2)cc(N2CCN(CCO)CC2)n1 [dasatanib] + CC(C)CCN1c2nc(Nc3cc(F)c(O)c(F)c3)ncc2N(C)C(=O)C1C [BID1870] (first compound 0.004 µM, partner dose 0.2 µM) | 84.8 | 101 | 185 | 126 | 170 | 45.4 | 130 | 117 | 93.8
Nc1cccc2c1CN(C1CCC(=O)NC1=O)C2=O (stereo unspecified) [lenalidomide] + c1cc(-c2cnn3cc(-c4ccc(OCCN5CCCCC5)cc4)cnc23)ccn1 [Dorsomorphin] (first compound 1 µM, partner dose 0.4 µM) | 81.7 | 54 | 90.7 | 154 | 47.7 | 206 | 94.5 | 97.5 | 176
COCC[n+]1c2c(n(Cc3cnccn3)c1C)C(=O)c1ccccc1C2=O + CCc1ccc(CCOc2ccc(CC3SC(=O)NC3=O)cc2)nc1 [pioglitazone] (first compound 0.0004 µM, partner dose 2 µM) | 73.1 | 39.3 | 116 | 301 | 124 | 44.6 | 90.2 | 175 | 78.1
C=CCn1c(=O)c2cnc(Nc3ccc(N4CCN(C)CC4)cc3)nc2n1-c1cccc(C(C)(C)O)n1 + COC(=O)c1sccc1S(=O)(=O)Nc1ccc(Nc2ccccc2)cc1OC [GSK0660] (first compound 0.02 µM, partner dose 1 µM) | 147 | 106 | 56.2 | 380 | 57.4 | 83.9 | 111 | 105 | 95
Cn1nnc2c(C(N)=O)ncn2c1=O [temozolomide] + CC(C)CCN1c2nc(Nc3cc(F)c(O)c(F)c3)ncc2N(C)C(=O)C1C [BID1870] (first compound 2 µM, partner dose 0.2 µM) | 22 | 57.7 | 79.8 | 250 | 103 | 55.5 | 120 | 135 | 140
Cc1ccc(NC(=O)c2cccc(N(C)C)c2)cc1NC(=O)c1ccc(O)cc1 + Cc1cc([N+](=O)[O-])ccc1NS(=O)(=O)c1cc(Cl)ccc1Cl [FH535] (first compound 2 µM, partner dose 1 µM) | 84.3 | 59.7 | 116 | 60.2 | 142 | 34.8 | 189 | 275 | 301

Not a retest: entries from further up.
Structure (SMILES) | cleaved PARP positive nuclei fraction (501Mel) [%] | cleaved PARP positive nuclei fraction (A101D) [%] | cleaved PARP positive nuclei fraction (A2058) [%] | cleaved PARP positive nuclei fraction (A375) [%] | cleaved PARP positive nuclei fraction (C32) [%] | cleaved PARP positive nuclei fraction (CBRC013) [%] | cleaved PARP positive nuclei fraction (CBRC014) [%] | cleaved PARP positive nuclei fraction (CBRC016) [%] | cleaved PARP positive nuclei fraction (CBRC017) [%]
Cn1c(Nc2ccc(C(F)(F)F)cc2)nc2cc(Oc3ccnc(-c4ncc(C(F)(F)F)[nH]4)c3)ccc21 + N#Cc1c(O)c2c(-c3ccc(-c4ccccc4O)cc3)csc2[nH]c1=O [A769662] (first compound 0.08 µM, partner dose 2 µM) | 70.3 | 265 | 98.8 | 327 | 85.5 | 310 | 107 | 141 | 93.8
Cn1c(Nc2ccc(C(F)(F)F)cc2)nc2cc(Oc3ccnc(-c4ncc(C(F)(F)F)[nH]4)c3)ccc21 + O=C1NC(=O)/C(=C/c2ccc(-c3ccc(F)cc3O)o2)S1 [AS252424] (first compound 0.08 µM, partner dose 1 µM) | 130 | 610 | 57.2 | 207 | 89.2 | 131 | 202 | 124 | 92
COCC[n+]1c2c(n(Cc3cnccn3)c1C)C(=O)c1ccccc1C2=O + COc1cc2ncnc(Nc3ccc(Oc4ccccc4)cc3)c2cc1OC [SrcI1] (first compound 0.0004 µM, partner dose 2 µM) | 38.9 | 200 | 101 | 549 | 89.4 | 101 | 97.9 | 76.8 | 69.2
C[C@@H]1CCN(C(=O)CC#N)C[C@@H]1N(C)c1ncnc2[nH]ccc12 + CCN(CC)CCCCNc1ncc2cc(-c3cc(OC)cc(OC)c3)c(NC(=O)NC(C)(C)C)nc2n1 [PD173074] (first compound 1 µM, partner dose 0.1 µM) | 85.3 | 177 | 102 | 62.7 | 158 | 102 | 72.2 | 65.2 | 74.3
Cc1nc(Nc2ncc(C(=O)Nc3c(C)cccc3Cl)s2)cc(N2CCN(CCO)CC2)n1 [dasatanib] + CC(C)CCN1c2nc(Nc3cc(F)c(O)c(F)c3)ncc2N(C)C(=O)C1C [BID1870] (first compound 0.004 µM, partner dose 0.2 µM) | 84.8 | 101 | 185 | 126 | 170 | 45.4 | 130 | 117 | 93.8
